Laboratory results as given in PubChem BioAssay AID504834 (National Center for Advancing Translational Sciences (NCATS), 2011).
The whole screen tested about 320,000 compounds, of which about 22,000 (6.9%) were called active. Inconclusive results, whose numbers are uncertain, are shown with a selection of clear calls. Calls come from the whole dose curve; as a rule, active = well fitted inhibition curve with a large enough effect; inconclusive = small, poorly fitted or top-dose-only effect, or another doubt; inactive = no such curve, though single readings can be large or run the other way. Potencies beside an inconclusive call are fits to weak or partial responses and may not hold up.

Test: Primary qHTS for delayed death inhibitors of the malarial parasite plastid, 96 hour incubation
Conditions: P. falciparum luciferase reporter growth; series mostly up to 28.7 µM
Method in brief: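 Luminescence readout: decreased luciferase signal marks inhibited growth of reporter-expressing P. falciparum in infected red cells (2% hematocrit, 0.05% parasitemia final), exposed to compound two generations (96 h, 37 C, 5% CO2).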
% is set by controls: 0 for no effect and ±100 for the full control effect; potency is the fitted concentration of half-maximal effect.

SMILES | Potency | activity change, negative = inhibition
NC(=O)CC(NC(=O)Cc1ccc(Br)cc1)c1ccc(NCCN2CCCC2)c([N+](=O)[O-])c1 (centres undefined) | inconclusive: 18.5 µM [inhibitor, single point] | –
Cc1ccc(-n2c(O)c(C=NCCN(C)C)c(=O)[nH]c2=O)cc1 | inactive | –
Cc1nc(NCCO)c2nnn(Cc3ccccc3F)c2n1 | inconclusive: 18.5 µM [inhibitor, single point] | –
COc1ccc(C(=O)NCCCc2nc3ccccc3n2Cc2cc(C)ccc2C)cc1OC | active: 10.4 µM | –
CC1Sc2ccc(S(=O)(=O)NCCc3ccccc3)cc2NC1=O (centres undefined) | inactive | –
COc1cccc(CC2(CO)CCCN(Cc3ccc(CN4CCCCC4)s3)C2)c1 (centres undefined) | inconclusive: 18.5 µM [inhibitor, single point] | –
CN(C)/C=C(/C(=O)c1ccccc1)S(=O)(=O)c1ccc(Cl)cc1 | inconclusive: 3.7 µM [inhibitor, single point] | –
CCc1cccc(NC(=O)CN(C)S(=O)(=O)c2cccs2)c1 | inconclusive: 18.5 µM [inhibitor, single point] | –
O=C(c1cnn2c(C(F)F)cc(-c3ccccc3)nc12)N1CCCCC1c1cccnc1 (centres undefined) | inconclusive: 0.928 µM [inhibitor, full curve, poor fit] | –
CCOc1cccc(-c2nnc(SCC(=O)Nc3cc(C)ccc3OC)n2N)c1 | inconclusive: 18.5 µM [inhibitor, single point] | –
Cc1ccc(S(=O)(=O)NCC(=O)N(CC2CCCO2)C(C(=O)NCC2CCCO2)C(C)C)cc1 (centres undefined) | inconclusive: 7.38 µM [inhibitor, partial curve, poor fit] | –
CC(C)(C)OC(=O)[C@H](Cc1ccccc1)NC(=O)c1nc[nH]c1C(=O)NC1CCN(C(=O)OC(C)(C)C)CC1 | active: 3.29 µM | –
O=C(COC(=O)CCc1ccc(S(=O)(=O)N2CCCCC2)cc1)Nc1ccc2c(c1)OCO2 | inconclusive: 18.5 µM [inhibitor, single point] | –
Cc1ccc(S(=O)(=O)N(C)Cc2ccc(C(=O)NN=C(CC(C)C)CC(C)C)cc2)cc1 | inconclusive: 7.38 µM [inhibitor, partial curve, poor fit] | –
CCOC(=O)c1cc2c(=O)n3ccccc3nc2n(CCOC)c1=NC(=O)c1ccncc1 | inconclusive: 2.94 µM [inhibitor, partial curve, poor fit] | –
NC1=Nc2cccc3cccc1c23 | inconclusive: 11.7 µM [inhibitor, single point] | –
CN(C)NC(=O)C12CCC(C)(C(=O)O1)C2(C)C (centres undefined) | inconclusive: 4.15 µM [inhibitor, single point] | –
OC(CN1CCCCC1)CN(c1ccccc1)c1ccccc1 (centres undefined) | active: 9.28 µM | –
S=c1[nH]nc(-c2ccncc2)n1/N=C/c1cn(-c2ccccc2)nc1-c1ccc(Cl)cc1 | inconclusive: 11.7 µM [inhibitor, single point] | –
O=C(Nc1cccc(C(=O)O)c1)/C(=C\c1ccc2c(c1)OCO2)NC(=O)c1ccccc1 | inconclusive: 0.0928 µM [inhibitor, single point] | –
CCc1ccc2oc(=O)cc(CN3CCCCC3)c2c1 | active: 5.22 µM | –
COc1ccc(NC(=O)Nc2ccc3nc(C)c(C)nc3c2)cc1 | inconclusive: 18.5 µM [inhibitor, single point] | –

SMILES | Potency | activity change, negative = inhibition
O=[N+]([O-])c1ccc(N=Cc2ccc(Br)c([N+](=O)[O-])c2)cc1 | inconclusive: 16.5 µM [inhibitor, single point] | –
CN(C)c1oc(-c2ccc(OCc3ccccc3)cc2)nc1C#N | active: 5.22 µM | –
Cc1ccccc1NC(=O)/C=C/c1cccc(C(F)(F)F)c1 | inconclusive: 0.415 µM [inhibitor, partial curve, poor fit] | –
COc1ccc(CCN=C(N)C(C)c2ccccc2)cc1OC (centres undefined) | inactive | –
O=[N+]([O-])c1ccc(Nc2nc(NC3CCCCC3)nc(N3CCCC3)n2)cc1 | inconclusive: 3.7 µM [inhibitor, partial curve, poor fit] | –
O=C1c2ccccc2C(=O)N1/N=C/c1ccc(Oc2ccc([N+](=O)[O-])cn2)cc1 | inactive | –
CN(C)Cc1c(C(=O)N/N=C/c2ccco2)nnn1-c1nonc1N | inconclusive: 7.38 µM [inhibitor, partial curve] | –
Nc1ccc(N2CCOCC2)c(Cl)c1 | inconclusive: 14.7 µM [inhibitor, partial curve, poor fit] | –
CC(C)[C@@]1(NC(=O)[C@@H]2C[C@@H]3c4cccc5[nH]cc(c45)C[C@H]3N(C)C2)O[C@@]2(O)[C@@H]3CCCN3C(=O)[C@H](Cc3ccccc3)N2C1=O | active: 1.85 µM | –
O=C1c2cccc3c([N+](=O)[O-])ccc(c23)C(=O)N1CC1CCCO1 (centres undefined) | active: 10.4 µM | –
Cc1c(O)c(=O)ccn1Cc1ccccc1 | inconclusive: 18.5 µM [inhibitor, single point] | –
Cc1c(C(=O)N2CCOCC2)c(S(=O)(=O)Nc2ccccc2F)c(C)n1C | inactive | –
C=CCSSSCC=C | inactive | –
CC(=O)Nc1ccc(S(=O)(=O)Oc2ccc(Br)cc2C(=S)N2CCOCC2)cc1 | inactive | –
COc1ccc(Cl)cc1NC(=O)CN(C)C(=O)c1n[nH]c2ccccc12 | inactive | –
CCOC(=O)Cc1csc(NC(=O)/C=C/c2cccc(Br)c2)n1 | inactive | –
O=C(Nc1cccc(Cl)c1)c1cc(S(=O)(=O)NCCc2ccc(Cl)cc2)ccc1F | inconclusive: 14.7 µM [inhibitor, single point] | –
CCOc1ccc(NC(=S)N(CCc2c(C)[nH]c3ccccc23)Cc2ccco2)cc1 | inconclusive: 13.1 µM [inhibitor, single point] | –
CCOC(=O)c1[nH]c(C)c(/C(O)=C2\C(=O)C(=O)N(CCN(C)C)C2c2cccc(OC)c2OC)c1C (centres undefined) | – | inactive: -8.65% [at 5.75 µM]
O=C(O)C1CCCN(S(=O)(=O)c2ccc3c(c2)OCCO3)C1 (centres undefined) | inactive | –
CS(=O)(=O)c1ccc(Cl)c(NC(=O)Cc2c(F)cccc2Cl)c1 | inactive | –
Cc1ccc(C)c(CN2C(=O)COc3ccccc32)c1 | inconclusive: 16.5 µM [inhibitor, partial curve, poor fit] | –

A few values from above:
Potency, `Cc1c(C(=O)N2CCOCC2)c(S(=O)(=O)Nc2ccccc2F)c(C)n1C` is entered as inactive
Potency, `CC(=O)Nc1ccc(S(=O)(=O)Oc2ccc(Br)cc2C(=S)N2CCOCC2)cc1` is entered as inactive
